PubChem BioAssay AID1259254 | NCATS | 2017

Aim: 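Finding genes that stop cells copying their DNA twice in one cycle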 (primary screen)
Cells: human HCT116 colorectal cancer cells
Reagents: single siRNA against human genes
Duration: 3 days
Read-out: 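Imaged Hoechst DNA stain sorts each cell into a cycle phase by DNA amount; per plate, G2 fraction set to 0% for non-targeting and 100% for GMNN siRNA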
Reading the numbers: G2 robust z-score: higher = more G2 cells, more excess DNA replication
Active means: 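Active siRNAs have a G2 robust z of 5 or more median absolute deviations over the median, which in these data means about 38% or higher of GMNN control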
The whole screen tested about 59,000 reagents; this is a random part of them. About 1,550 of all reagents (2.6%) were called active. 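G2 share is only a proxy for re-replication; each gene was hit by three separate siRNAs, and active genes were retested.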 Further read-outs or replicates are left out here. Not given: the amount of reagent.

LLPHP3 [SID160734003] → G2 robust z-score = 2.1; call = inactive
LLPHP3 [SID160734004] → G2 robust z-score = -0.312; call = inactive
LLPHP3 [SID160769964] → G2 robust z-score = -0.524; call = inactive
FAR1 [SID160751858] → G2 robust z-score = -1.25; call = inactive
FAR1 [SID160751859] → G2 robust z-score = 3.45; call = inactive
FAR1 [SID160751860] → G2 robust z-score = 3.2; call = inactive
NR5A2 [SID160767480] → G2 robust z-score = 1.12; call = inactive
NR5A2 [SID160767488] → G2 robust z-score = -1.02; call = inactive
NR5A2 [SID160767493] → G2 robust z-score = 4.52; call = inactive
GART [SID160775749] → G2 robust z-score = 0.69; call = inactive
GART [SID160775760] → G2 robust z-score = 2.57; call = inactive
GART [SID160775770] → G2 robust z-score = -0.294; call = inactive

Not a retest: entries from further up.
FAR1 [SID160751859] → G2 robust z-score = 3.45; call = inactive
FAR1 [SID160751860] → G2 robust z-score = 3.2; call = inactive
